Test results: patent publication US9738697B2 (Wisconsin Alumni Research Foundation, priority 2013, dated 2017)
Not every detail of the peptide structures is certain; ends, links or a residue may be inferred.

Protein sequences, listed by entry. Tags and fused reporters are not part of them. Lines headed by an entry give the natural chain unless they say otherwise; changes in a name come on top. Residues count along the entry.
UniProt P08473: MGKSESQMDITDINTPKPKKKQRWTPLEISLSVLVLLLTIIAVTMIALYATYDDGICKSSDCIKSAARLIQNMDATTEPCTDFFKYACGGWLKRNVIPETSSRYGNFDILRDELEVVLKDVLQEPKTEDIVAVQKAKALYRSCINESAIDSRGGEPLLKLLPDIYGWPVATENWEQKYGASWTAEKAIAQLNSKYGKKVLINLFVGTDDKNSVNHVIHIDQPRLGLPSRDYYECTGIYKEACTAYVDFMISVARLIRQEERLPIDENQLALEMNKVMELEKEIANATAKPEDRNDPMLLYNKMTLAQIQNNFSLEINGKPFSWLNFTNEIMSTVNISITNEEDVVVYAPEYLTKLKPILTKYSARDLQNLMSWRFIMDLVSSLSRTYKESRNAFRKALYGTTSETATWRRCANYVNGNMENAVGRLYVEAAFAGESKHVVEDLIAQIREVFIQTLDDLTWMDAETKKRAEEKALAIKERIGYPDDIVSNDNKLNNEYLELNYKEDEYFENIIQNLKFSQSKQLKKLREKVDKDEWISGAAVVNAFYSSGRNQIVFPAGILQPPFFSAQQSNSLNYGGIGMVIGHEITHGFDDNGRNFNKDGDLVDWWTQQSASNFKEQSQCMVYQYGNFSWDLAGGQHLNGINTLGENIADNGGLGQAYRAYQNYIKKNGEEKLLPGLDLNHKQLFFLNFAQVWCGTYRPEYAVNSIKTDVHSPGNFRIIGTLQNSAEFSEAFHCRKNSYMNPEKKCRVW
UniProt P43220, 24-463: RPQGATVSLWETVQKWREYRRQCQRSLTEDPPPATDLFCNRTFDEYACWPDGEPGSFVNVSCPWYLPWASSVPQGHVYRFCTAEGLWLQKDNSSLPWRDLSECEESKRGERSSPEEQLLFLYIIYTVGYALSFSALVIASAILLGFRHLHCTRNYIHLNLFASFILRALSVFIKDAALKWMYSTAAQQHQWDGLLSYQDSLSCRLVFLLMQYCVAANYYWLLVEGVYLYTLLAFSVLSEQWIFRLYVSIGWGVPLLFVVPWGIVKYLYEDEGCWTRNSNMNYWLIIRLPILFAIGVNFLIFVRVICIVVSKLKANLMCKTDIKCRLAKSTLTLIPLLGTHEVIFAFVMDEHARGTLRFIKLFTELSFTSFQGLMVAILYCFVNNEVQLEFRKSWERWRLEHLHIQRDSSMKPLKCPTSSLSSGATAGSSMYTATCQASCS

Assays:
[1] = target: T1, chymotrypsin (Bos taurus, UniProt P00766); assay: Protease assay with chymotrypsin (HPLC); assay type: in vitro ADME; conditions: MALDI-TOF-MS, 50 μg/mL chymotrypsin
T1 construct: purchased Promega V1062
Description: An HPLC method from the literature was used to assess protease action on selected compounds.^29,31 Two nmol of solid peptide was dissolved in 40 μL of TBS pH 8.0 (resulting concentration of peptide=40 μM) before protease was added. Chymotrypsin was purchased from Promega (Fitchburg, Wis.; catalog #V1062), and neprilysin was purchased from Reprokine. Ltd. (Valley Cottage, N.Y.; catalog #RKP08473); stock solutions of 250 μg/mL chymotrypsin and 200 μg/mL neprilysin in water were prepared. A 10 μL aliquot of protease stock solution was added to 40 μL of 40 μM peptide solution to begin the reaction. Periodically, a 10 μL aliquot of the solution was removed, and protease action was halted by adding this aliquot to 100 μL of 1% aqueous TFA solution. A portion (100 μL) of the quenched solution was injected onto an HPLC column using the conditions described under “Peptide Synthesis”, and peaks were analyzed using MALDI-TOF MS. The time course of peptide degradation was experimentally determined by integrating the area of each peak in a series of HPLC traces. The area percent of parent peptide (relative to the initial trace) was calculated for each trace and plotted in GraphPad Prism as an exponential decay to determine half-life values.
ID. […] Major backbone cut sites are indicated with double front slashes. […] Digestion occurs at three major cleavage sites. […] ID. […]

[2] = target: T2, neprilysin (Homo sapiens, UniProt P08473); assay: Protease assay with neprilysin (HPLC); assay type: in vitro ADME; conditions: MALDI-TOF-MS, 40 μg/mL neprilysin
T2 construct: purchased Reprokine; Ltd. RKP08473

[3] = target: human GLP-1 receptor (Homo sapiens, UniProt P43220); assay: GLP-1R activation monitored by cAMP production in HEK293 cells
[4] = system: mouse pancreatic islets; assay: Islet cell insulin secretion assay (glucose-stimulated insulin secretion, insulin content); assay type: cell-based
Description: A critical physiological role of GLP-1 is to augment glucose-stimulated insulin secretion (GSIS) from pancreatic islet β cells. α/β-Peptide SEQ. ID. […] The results are depicted in FIG. 2.
ID. NO: 7. Approximately 100 medium sized islets were washed three times, placed in a sterile Petri dish, and incubated overnight in culture medium (RPMI 1640, with 11.1 mM glucose, antibiotics and 10% heat-inactivated fetal bovine serum). The following day, 50 islets were washed and transferred in […] of Krebs Ringer Buffer (KRB) to a Swinnex®-brand filter holder (EMD Millipore, Billerica, Mass.). The islets were sandwiched between two layers of Bio-Gel P-2 bead (Bio-Rad, Hercules, Calif.) solution (200 mg beads/mL in KRB; bottom layer, […] and top layer, […]). The Swinnex filter holder was attached in-line with a Minipuls®-brand pump (Gilson, Middleton, Wis.) and a FC 204 Fraction Collector (Gilson). Islets were perifused at the rate of 1 mL/min, and samples were collected at 30 sec intervals. Insulin content of the islets themselves and insulin secretion were determined by ELISA. […] ID. NO: 7.

CC[C@H](C)[C@H](NC(=O)[C@H](Cc1ccccc1)NC(=O)[C@H](CCC(=O)O)NC(=O)[C@H]1CCC[C@@H]1NC(=O)[C@H](C)NC(=O)[C@H](C)NC(=O)[C@H](CCC(N)=O)NC(=O)[C@H]1CCC[C@@H]1NC(=O)[C@H](CCC(=O)O)NC(=O)[C@H](CC(C)C)NC(=O)[C@H](Cc1ccc(O)cc1)NC(=O)[C@H]1CCC[C@@H]1NC(=O)[C@H](CO)NC(=O)C(C)(C)NC(=O)[C@H](CC(=O)O)NC(=O)[C@H](CO)NC(=O)[C@@H](NC(=O)[C@H](Cc1ccccc1)NC(=O)[C@@H](NC(=O)CNC(=O)[C@H](CCC(=O)O)NC(=O)C(C)(C)NC(=O)[C@@H](N)Cc1c[nH]cn1)[C@@H](C)O)[C@@H](C)O)C(=O)N[C@H]1CCC[C@@H]1C(=O)N[C@@H](Cc1c[nH]c2ccccc12)C(=O)N[C@@H](CC(C)C)C(=O)N[C@H](C(=O)N[C@H]1CNC[C@@H]1C(=O)NCC(=O)N[C@@H](CCCNC(=N)N)C(=O)NCC(N)=O)C(C)C [SEQ. ID. NO: 7]
number of major cleavage sites, chymotrypsin [1]: one | number of major cleavage sites, neprilysin [2]: four | agonist character at GLP-1R (in words) [3]: full agonist | increase in glucose-stimulated insulin secretion (GSIS) ([4]; freshly isolated mouse islets, 90 nM agonist): ~2 fold | Insulin Content average (ng/3 islets) ([4]; high glucose + 3 nM peptide): 448.3 ng/3 islets | Insulin Content average (ng/3 islets) ([4]; high glucose + 10 nM peptide): 521.4 ng/3 islets | Insulin Content average (ng/3 islets) ([4]; high glucose + 30 nM peptide): 459.3 ng/3 islets | Insulin Content average (ng/3 islets) ([4]; high glucose + 90 nM peptide): 467.5 ng/3 islets
